In the supplement of paper PMC10689618:
The other results are listed elsewhere or left out. Many values rest on one well or one pass, so single values are uncertain.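 Primary human fetal astrocytes engulfed labelled rat cortical synaptosomes, measured as a red/green ratio corrected for calcein live-cell signal and scaled to the plate median. Toxicity meant calcein falling over 30%; decreased phagocytosis meant below 70% of median above 5 µM.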

Columns and labels:
[1] = tested on: Human fetal astrocytes; assay: loss of total cells relative to no-compound high-control median (toxicity); higher = more toxic (fewer cells); conditions: 24 h
[2] = tested on: Human fetal astrocytes; assay: synaptosome phagocytosis (pHrodo/calcein intensity ratio) relative to plate median of data wells; higher = more phagocytosis; conditions: 24 h

## CC(=O)O[C@@H]1CC2C(C)(C)[C@H](O)CC[C@]2(C)C2CC[C@@]3(C)[C@H](c4ccoc4)OC(=O)C4OC43[C@@]21C (stereo partly drawn) [alpha-DIHYDROGEDUNOL]
[1]; 1.39 µM
  loss of total cells: 22.7%
[1]; 2.78 µM
  loss of total cells: -6.9%
[1]; 5.56 µM
  loss of total cells: 18.1%
[1]; 11.11 µM
  loss of total cells: -21.3%
[1]; 22.22 µM
  loss of total cells: -1.5%
[2]; 1.39 µM
  synaptosome phagocytosis: 142%
[2]; 2.78 µM
  synaptosome phagocytosis: 128%
[2]; 5.56 µM
  synaptosome phagocytosis: 111%
[2]; 11.11 µM
  synaptosome phagocytosis: 63.9%
[2]; 22.22 µM
  synaptosome phagocytosis: 87.6%

## CCCCC1=NC2(CCCC2)C(=O)N1Cc1ccc(-c2ccccc2-c2nnn[nH]2)cc1
[1]; 1.39 µM
  loss of total cells: 21%
[1]; 2.78 µM
  loss of total cells: -33.3%
[1]; 5.56 µM
  loss of total cells: -3.7%
[1]; 11.11 µM
  loss of total cells: -7.5%
[1]; 22.22 µM
  loss of total cells: 5.3%
[2]; 1.39 µM
  synaptosome phagocytosis: 169%
[2]; 2.78 µM
  synaptosome phagocytosis: 86.5%
[2]; 5.56 µM
  synaptosome phagocytosis: 93%
[2]; 11.11 µM
  synaptosome phagocytosis: 86.8%
[2]; 22.22 µM
  synaptosome phagocytosis: 105%

## COc1cc2ccc(=O)oc2c(OC)c1OC
[1]; 1.39 µM
  loss of total cells: -6.2%
[1]; 2.78 µM
  loss of total cells: 17.9%
[1]; 5.56 µM
  loss of total cells: -24.4%
[1]; 11.11 µM
  loss of total cells: 24.5%
[1]; 22.22 µM
  loss of total cells: -2.6%
[2]; 1.39 µM
  synaptosome phagocytosis: 102%
[2]; 2.78 µM
  synaptosome phagocytosis: 92.6%
[2]; 5.56 µM
  synaptosome phagocytosis: 75.8%
[2]; 11.11 µM
  synaptosome phagocytosis: 129%
[2]; 22.22 µM
  synaptosome phagocytosis: 95.7%

## Cc1onc(-c2ccccc2Cl)c1C(=O)N[C@@H]1C(=O)N2[C@@H]1SC(C)(C)[C@@H]2C(=O)O
[1]; 1.39 µM
  loss of total cells: 4.5%
[1]; 2.78 µM
  loss of total cells: -7.8%
[1]; 5.56 µM
  loss of total cells: 4.9%
[1]; 11.11 µM
  loss of total cells: -8.9%
[1]; 22.22 µM
  loss of total cells: 39.8%
[2]; 1.39 µM
  synaptosome phagocytosis: 104%
[2]; 2.78 µM
  synaptosome phagocytosis: 85.3%
[2]; 5.56 µM
  synaptosome phagocytosis: 126%
[2]; 11.11 µM
  synaptosome phagocytosis: 130%
[2]; 22.22 µM
  synaptosome phagocytosis: 110%

## C=CCSCC(N)C(=O)O (stereo not given)
[1]; 1.39 µM
  loss of total cells: 3.3%
[1]; 2.78 µM
  loss of total cells: -1.1%
[1]; 5.56 µM
  loss of total cells: -1.5%
[1]; 11.11 µM
  loss of total cells: 11.5%
[1]; 22.22 µM
  loss of total cells: 15.6%
[2]; 1.39 µM
  synaptosome phagocytosis: 113%
[2]; 2.78 µM
  synaptosome phagocytosis: 100%
[2]; 5.56 µM
  synaptosome phagocytosis: 84.1%
[2]; 11.11 µM
  synaptosome phagocytosis: 123%
[2]; 22.22 µM
  synaptosome phagocytosis: 81%

## O=C1CCc2ccc(OCCCCN3CCN(c4cccc(Cl)c4Cl)CC3)cc2N1
[1]; 1.39 µM
  loss of total cells: -15.6%
[1]; 2.78 µM
  loss of total cells: -12%
[1]; 5.56 µM
  loss of total cells: 35.1%
[1]; 11.11 µM
  loss of total cells: 14.8%
[1]; 22.22 µM
  loss of total cells: 14.4%
[2]; 1.39 µM
  synaptosome phagocytosis: 54.8%
[2]; 2.78 µM
  synaptosome phagocytosis: 50.8%
[2]; 5.56 µM
  synaptosome phagocytosis: 83.9%
[2]; 11.11 µM
  synaptosome phagocytosis: 82.2%
[2]; 22.22 µM
  synaptosome phagocytosis: 101%

## O=c1[nH]cnc2nc[nH]c12
[1]; 1.39 µM
  loss of total cells: -2.5%
[1]; 2.78 µM
  loss of total cells: -6.1%
[1]; 5.56 µM
  loss of total cells: 2.2%
[1]; 11.11 µM
  loss of total cells: 6.1%
[1]; 22.22 µM
  loss of total cells: 11.1%
[2]; 1.39 µM
  synaptosome phagocytosis: 115%
[2]; 2.78 µM
  synaptosome phagocytosis: 93.4%
[2]; 5.56 µM
  synaptosome phagocytosis: 106%
[2]; 11.11 µM
  synaptosome phagocytosis: 109%
[2]; 22.22 µM
  synaptosome phagocytosis: 120%

## CC(=O)Nc1ncc([N+](=O)[O-])s1
[1]; 1.39 µM
  loss of total cells: 29%
[1]; 2.78 µM
  loss of total cells: -29.4%
[1]; 5.56 µM
  loss of total cells: 5%
[1]; 11.11 µM
  loss of total cells: -9.5%
[1]; 22.22 µM
  loss of total cells: -0.9%
[2]; 1.39 µM
  synaptosome phagocytosis: 135%
[2]; 2.78 µM
  synaptosome phagocytosis: 82.9%
[2]; 5.56 µM
  synaptosome phagocytosis: 101%
[2]; 11.11 µM
  synaptosome phagocytosis: 62.1%
[2]; 22.22 µM
  synaptosome phagocytosis: 93.8%

## CC1(C)S[C@@H]2[C@H](NC(=O)COc3ccccc3)C(=O)N2[C@H]1C(=O)O
[1]; 1.39 µM
  loss of total cells: 9.8%
[1]; 2.78 µM
  loss of total cells: -23.4%
[1]; 5.56 µM
  loss of total cells: -11.1%
[1]; 11.11 µM
  loss of total cells: -6.6%
[1]; 22.22 µM
  loss of total cells: -10.6%
[2]; 1.39 µM
  synaptosome phagocytosis: 92.1%
[2]; 2.78 µM
  synaptosome phagocytosis: 146%
[2]; 5.56 µM
  synaptosome phagocytosis: 145%
[2]; 11.11 µM
  synaptosome phagocytosis: 126%
[2]; 22.22 µM
  synaptosome phagocytosis: 107%

## COc1ccc2c(c1)OC[C@@H](Cc1ccc(OC)c(OC)c1)[C@@H]2O
[1]; 1.39 µM
  loss of total cells: -9.8%
[1]; 2.78 µM
  loss of total cells: -4%
[1]; 5.56 µM
  loss of total cells: 13.2%
[1]; 11.11 µM
  loss of total cells: 21.6%
[1]; 22.22 µM
  loss of total cells: 11.1%
[2]; 1.39 µM
  synaptosome phagocytosis: 104%
[2]; 2.78 µM
  synaptosome phagocytosis: 97.7%
[2]; 5.56 µM
  synaptosome phagocytosis: 127%
[2]; 11.11 µM
  synaptosome phagocytosis: 135%
[2]; 22.22 µM
  synaptosome phagocytosis: 139%

## O=C(O)c1cccnc1
[1]; 1.39 µM
  loss of total cells: 11.6%
[1]; 2.78 µM
  loss of total cells: -15.5%
[1]; 5.56 µM
  loss of total cells: 5.1%
[1]; 11.11 µM
  loss of total cells: 8.6%
[1]; 22.22 µM
  loss of total cells: -2.3%
[2]; 1.39 µM
  synaptosome phagocytosis: 97.7%
[2]; 2.78 µM
  synaptosome phagocytosis: 112%
[2]; 5.56 µM
  synaptosome phagocytosis: 93.5%
[2]; 11.11 µM
  synaptosome phagocytosis: 93.5%
[2]; 22.22 µM
  synaptosome phagocytosis: 87.3%

## C[C@]12C=CC(=O)C=C1CC[C@H]1[C@@H]3C[C@@H](O)[C@](O)(C(=O)CO)[C@@]3(C)C[C@H](O)[C@@]12F
[1]; 1.39 µM
  loss of total cells: -16.9%
[1]; 2.78 µM
  loss of total cells: -13.2%
[1]; 5.56 µM
  loss of total cells: -46%
[1]; 11.11 µM
  loss of total cells: -13%
[1]; 22.22 µM
  loss of total cells: -12.5%
[2]; 1.39 µM
  synaptosome phagocytosis: 102%
[2]; 2.78 µM
  synaptosome phagocytosis: 116%
[2]; 5.56 µM
  synaptosome phagocytosis: 117%
[2]; 11.11 µM
  synaptosome phagocytosis: 125%
[2]; 22.22 µM
  synaptosome phagocytosis: 101%

## COc1ccccc1OCCNCC(O)COc1cccc2[nH]c3ccccc3c12 (stereo not given) [Carvedilol]
[1]; 1.39 µM
  loss of total cells: 10.5%
[1]; 2.78 µM
  loss of total cells: -10.3%
[1]; 5.56 µM
  loss of total cells: -0.6%
[1]; 11.11 µM
  loss of total cells: -4.3%
[1]; 22.22 µM
  loss of total cells: 14.6%
[2]; 1.39 µM
  synaptosome phagocytosis: 154%
[2]; 2.78 µM
  synaptosome phagocytosis: 108%
[2]; 5.56 µM
  synaptosome phagocytosis: 98.7%
[2]; 11.11 µM
  synaptosome phagocytosis: 62.3%
[2]; 22.22 µM
  synaptosome phagocytosis: 56%

## COc1cc(C/C=C/c2ccccc2)c(OC)cc1O
[1]; 1.39 µM
  loss of total cells: 6.9%
[1]; 2.78 µM
  loss of total cells: 17.9%
[1]; 5.56 µM
  loss of total cells: -12.2%
[1]; 11.11 µM
  loss of total cells: 37.4%
[1]; 22.22 µM
  loss of total cells: 6.3%
[2]; 1.39 µM
  synaptosome phagocytosis: 119%
[2]; 2.78 µM
  synaptosome phagocytosis: 96.3%
[2]; 5.56 µM
  synaptosome phagocytosis: 102%
[2]; 11.11 µM
  synaptosome phagocytosis: 134%
[2]; 22.22 µM
  synaptosome phagocytosis: 115%

## CC1=CCc2c(cc3oc(C)cc(=O)c3c2O)OC1
[1]; 1.39 µM
  loss of total cells: -6.9%
[1]; 2.78 µM
  loss of total cells: -9.3%
[1]; 5.56 µM
  loss of total cells: -0.8%
[1]; 11.11 µM
  loss of total cells: 39.4%
[1]; 22.22 µM
  loss of total cells: -12.2%
[2]; 1.39 µM
  synaptosome phagocytosis: 144%
[2]; 2.78 µM
  synaptosome phagocytosis: 111%
[2]; 5.56 µM
  synaptosome phagocytosis: 100%
[2]; 11.11 µM
  synaptosome phagocytosis: 119%
[2]; 22.22 µM
  synaptosome phagocytosis: 78.7%

## Nc1ccn([C@@H]2O[C@H](CO)[C@@H](O)[C@H]2O)c(=O)n1
[1]; 1.39 µM
  loss of total cells: -0.4%
[1]; 2.78 µM
  loss of total cells: 2%
[1]; 5.56 µM
  loss of total cells: -12.2%
[1]; 11.11 µM
  loss of total cells: 43.9%
[1]; 22.22 µM
  loss of total cells: -21.9%
[2]; 1.39 µM
  synaptosome phagocytosis: 109%
[2]; 2.78 µM
  synaptosome phagocytosis: 108%
[2]; 5.56 µM
  synaptosome phagocytosis: 89.1%
[2]; 11.11 µM
  synaptosome phagocytosis: 156%
[2]; 22.22 µM
  synaptosome phagocytosis: 135%

## COc1cc(OC)c2c(=O)c(-c3ccccc3)c(C)oc2c1OC
[1]; 1.39 µM
  loss of total cells: 27.2%
[1]; 2.78 µM
  loss of total cells: 7.3%
[1]; 5.56 µM
  loss of total cells: -17.6%
[1]; 11.11 µM
  loss of total cells: 31.6%
[1]; 22.22 µM
  loss of total cells: 21.1%
[2]; 1.39 µM
  synaptosome phagocytosis: 127%
[2]; 2.78 µM
  synaptosome phagocytosis: 112%
[2]; 5.56 µM
  synaptosome phagocytosis: 114%
[2]; 11.11 µM
  synaptosome phagocytosis: 124%
[2]; 22.22 µM
  synaptosome phagocytosis: 169%
